This note sets out measurements from patent publication US20120095077.

The chains behind the UniProt entries cited, without tags or fusion partners. Residues count along the entry.
UniProt P19525, 1-184: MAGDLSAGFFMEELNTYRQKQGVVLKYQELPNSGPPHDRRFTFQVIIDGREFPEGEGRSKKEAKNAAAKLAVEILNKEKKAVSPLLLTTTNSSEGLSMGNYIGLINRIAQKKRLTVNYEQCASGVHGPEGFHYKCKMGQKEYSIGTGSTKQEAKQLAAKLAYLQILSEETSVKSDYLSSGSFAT

This series concerns the target PKR RNA-binding domain (RBD) (UniProt P19525). Description: footprint. To be noted: N2-propyl-8-oxo-2'-deoxyguanosine at antisense positions 4, 11, 16 (X); sense 3' TT overhang [antisense 4, 11, 16 (N2-propyl-8-oxo-2'-deoxyguanosine = G)]; ribonuclease V1 footprinting; A pairing places propyl in major groove; about 3-fold tighter than C-paired duplex; purified recombinant protein; letters built from the parent sequence and the stated change.

For at least one entry, the source does not settle the construct or the ends of the probe.

On to “GGAAAUGCAAGAGAAACUGTT / CAGGUUCUCUGGCAUGUCCTT”, for which the binding result is listed as “binds”.
